Drawing on patent US20260035475A1, this text covers binding for 3 molecules.

In test [1] the target is human transferrin receptor 1 (hTfR1), recombinant, construct not stated (human) (UniProt P02786). Description: BLI: hTfR1 captured on biotinylated human holo-transferrin on streptavidin sensors, 15 nM Fab in solution. On the technique in general: BLI is a label-free optical method that tracks binding on a fibre tip over time.
In test [2] the target is cynomolgus TfR1 (cTfR1), recombinant, construct not stated (cynomolgus). Put plainly: BLI: cTfR1 captured on biotinylated human holo-transferrin on streptavidin sensors, 15 nM Fab in solution.
The target in test [3] is human transferrin receptor 1 (hTfR1), recombinant, construct not stated (human) (UniProt P02786). Put plainly: BLI, 15 nM Fab on TfR1 captured by biotinylated holo-transferrin.
The target in test [4] is cynomolgus TfR1 (cTfR1), recombinant, construct not stated (cynomolgus). The test is described as above.
Test [5] has as its target human transferrin receptor 1 (hTfR1), recombinant, construct not stated (human) (UniProt P02786). Description: BLI (Octet): IgG captured from crude hybridoma supernatant on anti-mouse capture sensors, 250 nM hTfR1 in solution.
Test [6] deals with cynomolgus TfR1 (cTfR1), recombinant, construct not stated (cynomolgus). Put plainly: BLI (Octet): IgG captured from crude hybridoma supernatant on anti-mouse capture sensors, 250 nM cTfR1 in solution.
For test [7] the target is unchanged. Description: ELISA, hybridoma supernatant.
Test [8] deals with chimeric TfR1 consisting of human apical domain grafted on mouse TfR1 ectodomain (SEQ ID NO:76) (human/mouse chimera). Description: ELISA, coated His-tagged antigen, mouse IgG dilution series. (In general: ELISA stands for enzyme-linked immunosorbent assay.)
In test [9] the target is chimeric TfR1 consisting of human helical domain grafted on mouse TfR1 ectodomain (SEQ ID NO:77) (human/mouse chimera). Described as above.
Test [10] deals with human transferrin receptor 1 (hTfR1), recombinant, construct not stated (human) (UniProt P02786). Description: BLI, IgG captured from hybridoma supernatant, 250 nM hTfR1 in solution.
The target in test [11] is chimeric TfR1 consisting of human apical domain grafted on mouse TfR1 ectodomain (SEQ ID NO:76) (human/mouse chimera). Put plainly: condition: about 650 ng/ml (last point, between 100 and 1000 on the log axis); indirect ELISA on coated h/m apical domain chimera; x axis printed 'TfR (ng/ml)' [C].
Test [12] concerns the target mouse TfR1 (mTfR1), recombinant, construct not stated (mouse) (UniProt Q62351). Put plainly: BLI (Octet): IgG captured from crude hybridoma supernatant on anti-mouse capture sensors, 500 nM mTfR1 in solution.
Test [13] addresses chimeric TfR1 consisting of human helical domain grafted on mouse TfR1 ectodomain (SEQ ID NO:77) (human/mouse chimera). Description: condition: about 650 ng/ml (last point, between 100 and 1000 on the log axis); indirect ELISA on coated h/m helical domain chimera; x axis printed 'TfR (ng/ml)' [E].
The target in test [14] is mouse TfR1 (mTfR1), recombinant, construct not stated (mouse) (UniProt Q62351). Put plainly: BLI, IgG captured from hybridoma supernatant, 500 nM mTfR1 in solution.
Test [15] has as its target cynomolgus TfR1 (cTfR1), recombinant, construct not stated (cynomolgus). Description: BLI, IgG captured from hybridoma supernatant, 250 nM cTfR1 in solution.
For test [16], the target named is mouse TfR1 (mTfR1), recombinant, construct not stated (mouse) (UniProt Q62351). Description: BLI, IgG captured from hybridoma supernatant, TfR1 in solution.
Test [17] has as its target human transferrin receptor 1 (hTfR1), recombinant, construct not stated (human) (UniProt P02786). Described as above.
Test [18] has as its target cynomolgus TfR1 (cTfR1), recombinant, construct not stated (cynomolgus). The description is as above.
Test [19] deals with human transferrin receptor 1 (hTfR1), recombinant, construct not stated (human) (UniProt P02786). Description: BLI epitope binning on biotinylated hTfR1, competitor 15G11-1.

No constants are given. Whether binding was seen depends on the method and setting. Some results given as binding are weak or reduced against the parent protein; the word gives no strength.

B1: 37D10-Fab (Fab, V domains shown)
VH: QVQLQQSGAELVRPGTSVKISCKASGYAFTNYWLGWVKQRPGHGLEWIGDIFPGSDNTYYNEKFKGKATLTADKSSSTAYMQLSSLASEDSAVYFCARSGNFYAMDYWGQGTSVTVSS
VL: ENVLTQSPAIMSASPGEKVTMTCSASSSVNYMNWYQQKSSTFPKLWIYDTSKLASGVPGRFSGSGSGKFYSLTISSMEAEDVATYYCFQGSGYPFTFGSGTKLEIK
B1: the binding entry in [1], in [2], in [3] and in test [4] was “binds” each time.

B2: 37D10 (mouse monoclonal antibody) (antibody, V domains shown)
VH: B1 VH
VL: B1 VL
In the case of B2, the binding entry in test [5] is “binds”; in test [6] it was “binds”; in test [7] it was “binds”; in test [8], “no binding”; in [9] it was “no binding”; in test [10] it was “binds”. Besides, the binding result in test [11] is recorded as “no binding”; in test [12], “binds”; in [13] it was “no binding”; in [14], “binds”; in test [15] it was “binds”; in test [16] it was “binds”. In addition, the binding entry in [17] and in test [18] was “binds” each time.

B3: 24B4 (mouse monoclonal antibody) (antibody, V domains shown)
VH: EVQLQQFGAELVKPGTSVKISCKASGYTFTDYNMDWVKQGHGKGLEWIGDINPNYDTTSYSQKFKGKATLTVDKSSSTAYMELRSLTSEDTAVYYCARSEAGNYYWYFDVWGAGTTVTVSS
VL: DIVMSQSPSSLAVSVGEKVTMSCKSSQSLLYSSNRKNYLAWYRQKPGQSPKLLIYWASTRESGVPDRFTGSGSGTDFTLTISSVKAEDLAVYSCQQYYNYPYTFGGGTKLEIK
Consider B3, for which the binding result in [5] is recorded as “binds”; in [6], “binds”; in [7], “binds”; in [8], “no binding”; in [9] it was “no binding”; in test [10] it was “binds”. In addition, the binding result in test [11] is recorded as “no binding”; in test [13] it was “no binding”; in test [19], “binds”; in test [15], “binds”; in test [17] it was “binds”; in test [18], “binds”.
